The record followed here is PMC5561092.

By UniProt entry, the sequences of proteins in these tests, tags left out.
UniProt P36012: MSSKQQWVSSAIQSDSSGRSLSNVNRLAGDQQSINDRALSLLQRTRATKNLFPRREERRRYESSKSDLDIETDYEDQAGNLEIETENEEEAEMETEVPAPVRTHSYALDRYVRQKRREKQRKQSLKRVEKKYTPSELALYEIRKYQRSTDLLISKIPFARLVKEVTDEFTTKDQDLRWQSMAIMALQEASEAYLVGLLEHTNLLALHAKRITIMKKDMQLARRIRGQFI
UniProt P19812: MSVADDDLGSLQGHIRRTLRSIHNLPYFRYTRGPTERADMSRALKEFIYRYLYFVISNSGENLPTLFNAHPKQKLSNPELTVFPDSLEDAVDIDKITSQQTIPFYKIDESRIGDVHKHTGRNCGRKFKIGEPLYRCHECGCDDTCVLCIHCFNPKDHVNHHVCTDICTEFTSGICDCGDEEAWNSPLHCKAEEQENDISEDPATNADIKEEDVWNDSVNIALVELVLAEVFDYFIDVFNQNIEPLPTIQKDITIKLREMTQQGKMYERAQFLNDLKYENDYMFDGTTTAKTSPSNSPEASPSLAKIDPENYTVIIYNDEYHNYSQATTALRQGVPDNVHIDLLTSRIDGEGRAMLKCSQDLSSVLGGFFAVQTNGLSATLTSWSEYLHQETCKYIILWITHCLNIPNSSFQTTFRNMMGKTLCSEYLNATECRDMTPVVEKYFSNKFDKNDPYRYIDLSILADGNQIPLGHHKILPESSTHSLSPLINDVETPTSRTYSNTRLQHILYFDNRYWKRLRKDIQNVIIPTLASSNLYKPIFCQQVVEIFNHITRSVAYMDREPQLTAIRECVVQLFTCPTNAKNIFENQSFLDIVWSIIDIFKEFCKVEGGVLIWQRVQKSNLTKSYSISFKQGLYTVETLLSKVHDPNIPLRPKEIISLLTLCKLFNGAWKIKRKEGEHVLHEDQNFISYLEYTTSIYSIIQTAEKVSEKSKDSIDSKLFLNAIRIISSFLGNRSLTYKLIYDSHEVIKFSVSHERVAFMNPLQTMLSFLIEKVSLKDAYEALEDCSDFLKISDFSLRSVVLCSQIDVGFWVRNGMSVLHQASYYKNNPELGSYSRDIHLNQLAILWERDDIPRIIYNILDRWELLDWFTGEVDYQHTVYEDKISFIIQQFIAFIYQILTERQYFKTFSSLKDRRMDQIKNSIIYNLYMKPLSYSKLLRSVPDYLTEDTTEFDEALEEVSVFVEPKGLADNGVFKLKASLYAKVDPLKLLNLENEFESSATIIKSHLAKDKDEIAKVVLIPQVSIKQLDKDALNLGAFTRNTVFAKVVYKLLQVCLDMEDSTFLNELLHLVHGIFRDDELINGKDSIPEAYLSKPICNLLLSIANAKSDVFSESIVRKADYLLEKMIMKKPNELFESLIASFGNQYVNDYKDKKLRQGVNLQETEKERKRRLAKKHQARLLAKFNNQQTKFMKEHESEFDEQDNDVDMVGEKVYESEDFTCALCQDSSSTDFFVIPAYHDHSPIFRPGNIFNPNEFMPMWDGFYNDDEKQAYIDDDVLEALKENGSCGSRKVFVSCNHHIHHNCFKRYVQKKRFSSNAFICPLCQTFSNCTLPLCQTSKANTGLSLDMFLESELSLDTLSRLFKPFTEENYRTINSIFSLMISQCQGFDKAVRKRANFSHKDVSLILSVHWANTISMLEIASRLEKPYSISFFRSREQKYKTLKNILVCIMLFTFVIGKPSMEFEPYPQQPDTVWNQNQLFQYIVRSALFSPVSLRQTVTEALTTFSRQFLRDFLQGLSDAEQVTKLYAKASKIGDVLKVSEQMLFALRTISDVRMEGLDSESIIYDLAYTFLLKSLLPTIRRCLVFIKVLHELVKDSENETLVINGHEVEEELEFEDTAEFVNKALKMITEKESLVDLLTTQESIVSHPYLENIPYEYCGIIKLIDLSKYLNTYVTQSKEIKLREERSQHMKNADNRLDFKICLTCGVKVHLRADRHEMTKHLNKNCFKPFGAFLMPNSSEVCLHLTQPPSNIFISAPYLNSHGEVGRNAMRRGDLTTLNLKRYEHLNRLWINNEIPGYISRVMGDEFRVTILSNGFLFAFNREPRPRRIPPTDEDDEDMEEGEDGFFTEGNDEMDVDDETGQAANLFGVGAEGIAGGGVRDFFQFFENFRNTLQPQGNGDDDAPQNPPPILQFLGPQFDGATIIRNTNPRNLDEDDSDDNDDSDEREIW

Assay in all cases: co-IP; extracts of yeast cells co-expressing the two tagged proteins from plasmids, incubated with IgG beads coated with HA or Flag antibody; SDS-PAGE and western blotting with Flag or HA antibody; both directions
(Immunoblotting shows a protein as a band on a membrane.)

The target of test [1] is HA-tagged Cse4 (S. cerevisiae) (UniProt P36012).
In test [2] the target is T1, HA-tagged Slx5 (S. cerevisiae) (UniProt P32828).
T1 sequence: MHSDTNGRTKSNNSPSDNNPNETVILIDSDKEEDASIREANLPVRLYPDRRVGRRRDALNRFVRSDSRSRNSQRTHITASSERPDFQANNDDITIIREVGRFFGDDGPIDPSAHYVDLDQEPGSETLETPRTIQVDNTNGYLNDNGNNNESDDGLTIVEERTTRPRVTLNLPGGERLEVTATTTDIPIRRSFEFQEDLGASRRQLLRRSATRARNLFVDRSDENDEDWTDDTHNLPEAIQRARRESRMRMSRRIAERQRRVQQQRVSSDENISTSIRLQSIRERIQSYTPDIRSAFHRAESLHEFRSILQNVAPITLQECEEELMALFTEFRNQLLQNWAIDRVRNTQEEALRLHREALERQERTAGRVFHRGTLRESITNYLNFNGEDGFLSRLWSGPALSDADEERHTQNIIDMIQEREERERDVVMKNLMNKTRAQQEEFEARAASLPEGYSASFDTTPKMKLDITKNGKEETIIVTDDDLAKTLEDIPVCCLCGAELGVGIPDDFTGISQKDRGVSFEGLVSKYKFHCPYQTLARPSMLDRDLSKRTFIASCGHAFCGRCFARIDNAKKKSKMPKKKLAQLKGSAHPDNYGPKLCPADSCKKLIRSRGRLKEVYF

Test [3] addresses Flag-tagged Ubr1 (S. cerevisiae) (UniProt P19812).
In test [4] the target is Flag-Cse4 (S. cerevisiae) (UniProt P36012).

These are yes or no findings as the source states them, for the method shown. Binding seen in cells or lysates may run through a third protein. Some entries that bind do so weakly or less than the wild type. For some of these results: Sequences can lack the tags named with a protein.

Regarding “Flag-tagged Ubr1 (from UniProt P19812 1-1950) (enzyme)”, the binding result in test [1] is given as “binds”.

For Flag-Cse4 (from UniProt P36012 1-229), the binding result in test [2] was “binds”.

On to “HA-tagged Cse4 (from UniProt P36012 1-229)”, for which the binding entry in test [3] is “binds”.

B1: HA-tagged Slx5 (enzyme, UniProt P32828 1-619)
chain: T1 sequence
Take B1: the binding result in test [4] is listed as “binds”.
